The record followed here is US20220047631A1 (UNIVERSITY OF CHICAGO, published 2022).

The assay has as its target T1, Tn-OTS8 peptide ERGT(GalNAc)KPPLEELSGK-biotin, monomer (murine).
T1 construct: also called glycosylated OTS-8 peptide (biotinylated)
T1 peptide: ERGT(GalNAc)KPPLEELSGK(Biotin)
Briefly: flow cytometry of yeast-displayed clone with 1 or 10 nM Tn-OTS8 peptide. On the procedure:
FIG. 20. […] 10 clones were isolated from Tn-OTS8 peptide-sorted post-sort-4 and post-sort-5 populations. Each clone was stained with 1 or 10 nM Tn-OTS8 peptide and analyzed by flow cytometry. The mean fluorescence units (MFUs) of each clone is plotted on Y-axis. […] In addition, plasmid DNA was isolated from each clone to determine the kind of mutation(s), and frequency of mutation(s) (n). The sequence of wild-type (wt) and mutated residues is shown in black and maroon, respectively.
Background: In flow cytometry, cells or beads pass a laser one at a time.

Where no end group is shown, it is not given here. The star is where a group is joined. GalNAc = N-acetyl galactosamine (O-linked to Thr, Tn antigen); Biotin = O=C1N[C@H]2[C@H](CS[C@H]2CCCCC(=O)*)N1

B1: --WS (wt: STHV) (scFv)
scFv (VL-linker-VH): DIQLTQSPLSLPVSLGDQASISCRSSQSLVHSNGNTYLHWYLQKPGQSPKLLIYKVSNRFSGVPDRFSGSGSGTDFTLKISSVEAEDLGVYFCSQSTWSPTFGGGTKLEIKGGGGSGGGGSGGGGSQVQLQQSGGGLVQPGGSMKIFCAASGFTFSDAWMDWVRQSPEKGLEWVAEIRNKANNHETYYAESVKGRFTITRDDSKSRMSLQMNSLRAEDTGIYYCSGGKVRNAYWGQGTTVTVSS
notes: isolated after sort 4 with Tn-OTS8p; also called clones O4-5, O4-8
As for B1, the binding result was “binds”.
